Data as given in PubChem BioAssay AID2685 (National Center for Advancing Translational Sciences (NCATS), 2010).
Hit rate of the full screen: of about 320,000 compounds, about 2,100 (0.66%) were called active. Inconclusive means that the source gave no clear call. Such entries were picked first, then a sample of the others. The call rests on the fitted dose curve; in most records, active means well fitted inhibition curve with a large enough effect in the signal ratio, with a control signal flat (not every such curve was filed as active); inconclusive means small, poorly fitted or top-dose-only effect, or effect the other way, or a change in a side signal; inactive means flat fitted curve, though single readings scatter; the % refers to the signal ratio. A potency beside an inconclusive call is a rough fit, not a confirmed value.

experiment: qHTS Assay for Lipid Storage Modulators in Drosophila S3 Cells; settings: BODIPY lipid droplet fluorescence, 18-24 h, cells fed with added oleic acid; lipid storage change, negative = inhibition: at 46.1 µM (top of the series) unless noted
Method in brief: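 Drosophila S3 cells got compounds at several concentrations plus oleic acid (400 uM solution). Laser-scanning cytometry with 488 nm excitation read lipid droplets at 500-530 nm and cells at 575-640 nm. Percent activity was relative to 20 uM Triacsin C.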
On the % scale 0 is the no-effect control and ±100 the full control effect; potency means the concentration at half of the fitted maximal effect.

| SMILES | Potency | lipid storage change, negative = inhibition |
| --- | --- | --- |
| COc1cccc(NC(=O)c2oc3ccccc3c2NC(=O)c2ccc3c(c2)OCO3)c1 | inconclusive: 11.6 µM [falling, partial curve] | – |
| O=C(OCc1csc(-c2ccccc2)n1)c1cccs1 | – | inconclusive: -5.72% |
| Cc1[nH]n(-c2ccccc2)c(=S)c1C=Nc1cccc([N+](=O)[O-])c1 | – | inconclusive: -66.3% |
| Cc1cccc(NC(=O)c2c(-c3ccccc3)noc2C)n1 | – | inconclusive: 22.9% |
| C[C@H](NC(=O)c1nc[nH]c1C(=O)N[C@@H](Cc1ccccc1)C(=O)OC(C)(C)C)C(=O)OCc1ccccc1 | active: 14.6 µM | – |
| Cc1ccc(OCCC(=O)OCC(=O)Nc2ccccc2)cc1 | – | inconclusive: -30.5% |
| O=C(c1ccc(NC(=O)C(c2ccccc2)c2ccccc2)cc1)c1ccc(C(=O)O)c(C(=O)O)c1 | – | inconclusive: -51.9% |
| O=C(/C=C/c1ccc(F)cc1)NCC1(c2ccccc2)CCOCC1 | inconclusive: 0.731 µM [activator, partial curve] | – |
| N=C(N)SCc1nc2ccccc2c(=O)n1-c1ccccc1Cl | – | inconclusive: -22.5% |
| Cc1ccccc1/C=N\NC(=O)c1ccc(Cn2cccn2)o1 | – | inconclusive: 16.2% |
| FC(F)(F)c1cccc(-c2nc(COc3ccc(Cl)cc3Cl)no2)c1 | – | inconclusive: 10.6% |
| CN(C)C(=O)CN1CCN(c2nc3nonc3nc2N2CCCCC2)CC1 | – | inconclusive: 15.7% |
| Cn1c(Cc2cccs2)nnc1SCC(=O)Nc1ccc(C(N)=O)cc1 | – | inconclusive: 26.4% |
| N/C(=N\S(=O)(=O)c1cccs1)c1ccccc1 | – | inactive |
| COc1ccc(C(CNC(=O)Cc2ccccc2Cl)N2CCCCC2)cc1 (centres undefined) | – | inconclusive: 13.8% |
| O=C(COc1ccc(N2CC(C(=O)O)CC2=O)cc1)Nc1cccc(C(F)(F)F)c1 (centres undefined) | inconclusive: 0.206 µM [falling, full curve, poor fit] | – |
| CCC1(C(=O)OC)NC(c2ccco2)C2C(=O)N(c3ccc(F)cc3)C(=O)C21 (centres undefined) | – | inconclusive: -1.94% |
| O=C(CCc1nc(-c2ccccc2)no1)NCCc1ccccc1 | – | inconclusive: 8.12% |
| O=C(Cn1cnc2sc3c(c2c1=O)CCCC3)NCC(=O)Nc1ccccc1F | – | inconclusive: 36.8% |
| O=C(Nc1ccc(N2CCN(C(=O)c3ccco3)CC2)cc1)c1ccccc1Br | inconclusive: 2.91 µM [activator, partial curve] | – |
| CC(C)Sc1nc2c(c(=O)[nH]c(=O)n2C)n1Cc1ccccc1 | – | inactive |
| Cc1ccc(CN(CC(=O)NC(C)(C)C)C(=O)CNC(=O)c2cccs2)cc1 | – | inconclusive: -27.4% |
| CCCN1C(=O)CSC1=Nc1ccccc1 | – | inconclusive: 39.1% |
| CCc1ccc(NC(=O)c2cnn3c(C(F)F)cc(C)nc23)cc1 | – | inconclusive: 13.5% |
| O=C1NC(CCc2ccccc2)C(=O)N1CCOc1ccccc1 (centres undefined) | inconclusive: 14.6 µM [activator, partial curve] | – |
| O=C(Nc1cccc(F)c1)c1cc(S(=O)(=O)N2CCOCC2)ccc1N1CCCC1 | – | inconclusive: 13.4% |
| CNC(=O)c1ccsc1NC(=O)c1ccc2c(c1)CCCC2 | inconclusive: 0.517 µM [activator, full curve, poor fit] | – |

Structures above that contain four or more nitrogen atoms:

| SMILES | Potency | lipid storage change, negative = inhibition |
| --- | --- | --- |
| Cc1[nH]n(-c2ccccc2)c(=S)c1C=Nc1cccc([N+](=O)[O-])c1 | – | inconclusive: -66.3% |
| C[C@H](NC(=O)c1nc[nH]c1C(=O)N[C@@H](Cc1ccccc1)C(=O)OC(C)(C)C)C(=O)OCc1ccccc1 | active: 14.6 µM | – |
| N=C(N)SCc1nc2ccccc2c(=O)n1-c1ccccc1Cl | – | inconclusive: -22.5% |
| Cc1ccccc1/C=N\NC(=O)c1ccc(Cn2cccn2)o1 | – | inconclusive: 16.2% |
| CN(C)C(=O)CN1CCN(c2nc3nonc3nc2N2CCCCC2)CC1 | – | inconclusive: 15.7% |
| Cn1c(Cc2cccs2)nnc1SCC(=O)Nc1ccc(C(N)=O)cc1 | – | inconclusive: 26.4% |
| O=C(Cn1cnc2sc3c(c2c1=O)CCCC3)NCC(=O)Nc1ccccc1F | – | inconclusive: 36.8% |
| CC(C)Sc1nc2c(c(=O)[nH]c(=O)n2C)n1Cc1ccccc1 | – | inactive |
| CCc1ccc(NC(=O)c2cnn3c(C(F)F)cc(C)nc23)cc1 | – | inconclusive: 13.5% |

Quoted at random: 2 records from the list.

| SMILES | Potency | lipid storage change, negative = inhibition |
| --- | --- | --- |
| O=C1NC(CCc2ccccc2)C(=O)N1CCOc1ccccc1 (centres undefined) | inconclusive: 14.6 µM [activator, partial curve] | – |
| COc1ccc(C(CNC(=O)Cc2ccccc2Cl)N2CCCCC2)cc1 (centres undefined) | – | inconclusive: 13.8% |

Additional results follow:

| SMILES | Potency | lipid storage change, negative = inhibition |
| --- | --- | --- |
| O=S(=O)(Nc1ccccc1N1CCCCC1)c1ccc(F)cc1 | – | inconclusive: -17.2% |
| Cn1c(SCC(=O)Nc2ccccc2Br)nnc1-c1cnccn1 | – | inconclusive: 70.9% |
| CCCCc1ccc(NC(=S)N2CCCC(C)C2)cc1 (centres undefined) | – | inconclusive: -50% [cytotoxic] [at 0.00295 µM] |
| COc1ccc(N(C(C)C(=O)NC2CCCCCC2)S(C)(=O)=O)cc1 (centres undefined) | active: 5.17 µM | – |
| CCOc1ccc(NC(=O)COC(=O)c2cccnc2)cc1 | inconclusive: 1.16 µM [falling, single point] | – |
| N#CC1=C(N)OC2=C(C(=O)CCC2)C12CCN(C(=O)OCc1ccccc1)CC2 | inconclusive: 29.1 µM [activator, single point] | – |
| Cc1ccc2c(c1)nnn2C1CCN(CC(=O)Nc2ccccc2N2CCOCC2)CC1 | – | inconclusive: -16.6% |
| O=C(OCC(=O)N1CCCCC1)c1c[nH]c2ccccc12 | – | inconclusive: 31.3% |
| N#Cc1cnc(SCC(=O)NNC(=O)COc2cccc3ccccc23)nc1N | – | inconclusive: 12.8% |
| O=C(Nc1nnc(C2CC2)s1)C1COc2ccccc2O1 (centres undefined) | – | inconclusive: 15.1% |
| Cc1cccc(-n2nnnc2SCC(=O)c2cc(C)n(Cc3ccco3)c2C)c1 | – | inconclusive: 38.8% |
| CCn1c(-c2ccc(F)cc2)n[nH]c1=S | – | inconclusive: 16.1% |
| O=C(CN1C(=O)NC2(CCCC2)C1=O)Nc1ccc(Cl)cc1F | – | inconclusive: -159% |
| CCOC(=O)c1sc(NC(=O)CSc2nnnn2-c2ccccc2)nc1C | inconclusive: 1.84 µM [activator, full curve] | – |
| Nc1nnc(SCc2cn3cc(Cl)ccc3n2)s1 | inconclusive: 6.51 µM [rising, single point] | – |
| CCN(CC)C(=S)SCC(=O)Nc1ncc2c(n1)CCCC2=O | – | inconclusive: 10% |
| O=C(c1cnn2c(C(F)(F)F)cc(-c3ccccc3)nc12)N1CCCc2ccccc21 | inconclusive: 2.06 µM [activator, partial curve] | – |
| COc1ccc(C(=O)CN2C(=O)c3ccccc3C2=O)c(OC)c1 | inconclusive: 0.0046 µM [falling, full curve, poor fit] | – |
| COC(=O)c1sc(NC(=O)c2oc3ccccc3c2C)nc1C | inconclusive: 0.092 µM [activator, full curve, poor fit] | – |
| COC(=O)C(CCSC)NC(=O)CNS(=O)(=O)c1ccc(Br)cc1 (centres undefined) | – | inconclusive: 8.07% |
| Clc1ccc(Sc2oc(/C=N/n3cnnc3)cc2Br)cc1 | – | inconclusive: 67.8% |
| O=C(c1c[nH]c2ccc(S(=O)(=O)N3CCC4(CC3)OCCO4)cc2c1=O)N1CCOCC1 | – | inconclusive: -5.31% |
| CCn1nc(C)c(/C=N/NC(=O)Cn2nnc(N)n2)c1C | – | inconclusive: -21.2% |
| COc1cc(C(=S)N2CCN(c3ccccc3Cl)CC2)cc(O)c1O | – | inconclusive: -18.7% |
| CCCn1c(C)cc(/C=C(\C#N)C(=O)OCC(=O)NC(=O)NCC)c1C | – | inconclusive: -76.6% |
| N#Cc1c2c(c(NCCCN3CCOCC3)n3c1nc1ccccc13)CCC2 | – | inconclusive: 131% [at 0.0737 µM] |
| Cc1cccc(N(Cc2ccccc2)C(=O)c2ccccc2F)c1 | – | inconclusive: -61.6% |

| SMILES | Potency | lipid storage change, negative = inhibition |
| --- | --- | --- |
| O=C1CCN(c2ccc([N+](=O)[O-])cc2F)CC1 | inconclusive: 2.31 µM [falling, full curve] | – |
| C=CCNC(=S)N/N=C/c1ccc(C)cc1C | – | inconclusive: -0.863% |
| Nc1c(C(=O)c2cccs2)sc2nsc(SCCN3CCCCC3)c12 | active: 13 µM | – |
| O=C(CCc1nnc(C2(c3ccc(Cl)cc3)CCC2)o1)NC1CC1 | – | inactive |
| COc1ccc(S(=O)(=O)Nc2ccc3cn[nH]c3c2)cc1[N+](=O)[O-] | inconclusive: 29.1 µM [falling, single point] | – |
| O=C(CSc1ccc(-c2ccco2)nn1)c1cccc([N+](=O)[O-])c1 | inconclusive: 6.51 µM [rising, partial curve, poor fit] | – |
| O=C(Nc1ccc(Cl)c(S(=O)(=O)N2CCOCC2)c1)c1n[nH]c(=O)c2ccccc12 | inconclusive: 0.206 µM [activator, full curve] | – |
| Cc1cccnc1NC(=O)c1cccc(S(=O)(=O)N2CCN(c3ccccc3)CC2)c1 | – | inconclusive: 30.5% |
| CCn1ccnc1C(O)c1cccc2ccccc12 (centres undefined) | – | inconclusive: -33.8% |
| Cc1cc(OCC(=O)NCC2CCC(C(=O)O)CC2)c2c(C)c(Cc3ccccc3)c(=O)oc2c1 (centres undefined) | inconclusive: 0.326 µM [falling, full curve, poor fit] | – |
| COc1cc(OC)cc(C(=O)NCC(=O)OCC(=O)c2cc(OC)ccc2OC)c1 | active: 23.1 µM | – |
| O=C(CCl)NCCN1C(=O)S/C(=C\c2cccnc2)C1=O | – | inconclusive: 12.5% |
| Clc1ccc(CSc2ncn[nH]2)cc1 | – | inconclusive: 0.739% |
| Cn1c(SCC(=O)N2CCCC2)nnc1-c1ccc(S(=O)(=O)N2CCCC2)cc1 | – | inconclusive: -9.54% |
| O=C(O)/C=C/C(=O)NC1CCC(CC2CCC(NC(=O)/C=C/C(=O)O)CC2)CC1 (centres undefined) | – | inactive |
| Fc1ccc(N2CCN(Cc3ccccn3)CC2)cc1 | – | inconclusive: -2.31% |
| CCCCC(=O)NC(c1ccc(C(C)C)cc1)c1ccc2cccnc2c1O (centres undefined) | active: 18.4 µM | – |
| COc1cc2c(cc1OC)C(c1c(Cl)cccc1Cl)NC(=O)C2 (centres undefined) | – | inconclusive: -31.6% |
| O=C(NCC(c1cccs1)N1CCOCC1)c1ccc(Cl)nc1 (centres undefined) | inconclusive: 29.1 µM [activator, single point] | – |
| COC(=O)c1nn(-c2cccc(Cl)c2)ccc1=O | – | inconclusive: -22.9% |
| Cc1c(NC(=O)c2cccc(NC(=O)c3ccco3)c2)cccc1C(=O)O | inconclusive: 29.1 µM [falling, single point] | – |
| O=C(Nc1ccc(S(=O)(=O)Nc2ncccn2)cc1)c1ccc(Cl)c([N+](=O)[O-])c1 | inconclusive: 29.1 µM [activator, single point] | – |
| NCCNc1ccc([N+](=O)[O-])c(NC2CC2)c1 | – | inconclusive: 79% |
| COc1ccc(OC)c(/C=C/c2ccc3cccc(O)c3n2)c1 | – | inconclusive: -38.3% |
| O=C(N/N=C/c1ccc(O)c(O)c1)N/N=C/c1ccc(O)c(O)c1 | – | inconclusive: 38.3% |
